From article PMC7819943, “Rice protein-binding microarrays: a tool to detect cis-acting elements near promoter regions in rice”
Some of the results follow.

Biological target: T1, OsSMF1 (Oryza sativa, UniProt Q6ZLB0 1-436)
T1 sequence: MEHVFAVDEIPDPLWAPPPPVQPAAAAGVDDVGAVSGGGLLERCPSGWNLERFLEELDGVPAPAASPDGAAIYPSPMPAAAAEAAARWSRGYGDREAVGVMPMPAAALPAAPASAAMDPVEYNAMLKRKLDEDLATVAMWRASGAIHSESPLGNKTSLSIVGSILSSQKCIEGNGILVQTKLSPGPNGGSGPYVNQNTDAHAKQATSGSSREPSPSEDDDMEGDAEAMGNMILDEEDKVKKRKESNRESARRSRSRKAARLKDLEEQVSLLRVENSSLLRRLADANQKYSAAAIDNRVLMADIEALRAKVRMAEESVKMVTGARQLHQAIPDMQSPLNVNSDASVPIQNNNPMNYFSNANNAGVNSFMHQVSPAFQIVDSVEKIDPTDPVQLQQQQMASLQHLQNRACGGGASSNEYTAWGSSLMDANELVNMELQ
Assay: protein-binding microarray (RPBM); PBS, 2% BSA, 51.3 ng/ul salmon testes DNA, 50 uM zinc acetate, 200 nM TF, 25 C, 1 h; high values mean tight binding
Details: protein: recombinant; tags: N-terminal polyhistidine and DsRed monomer fusion (pET32a); chain copies: 2; label: CyDye5-dUTP incorporated in the synthesized complementary strand; 3' TTTTT single-stranded linker to array surface; dsDNA, one strand shown
Summary of the method: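 The binding signal is fluorescence intensity per feature, in arbitrary units, read on an Axon 4000B scanner. Polyhistidine- and DsRed-tagged transcription factors (N-terminal fusions) from E. coli BL21-CodonPlus were purified on Ni–NTA and applied at 200 nM for 1 h at 25 °C to a double-stranded, BSA-blocked custom Agilent array in buffer with 50 µM zinc acetate.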

Sequence | binding signal
TACCATTTCTTGACAAGTCAGATAGAAACCTGGATTCATTCGGAGTCACCTAGTGCAG | 3640 fluorescence intensity (a.u.)
CCGTGCACGCTCCCAGATCATGCCACGTGGGTGGGCCCCACGGAGTCACCTAGTGCAG | 16200 fluorescence intensity (a.u.)
TTTAGGCAAGTGGACAACAATAACACATCATTAATCTCCACGGAGTCACCTAGTGCAG | 4500 fluorescence intensity (a.u.)
AGTGGCGTAGTATTTGGATCCGCCGCCTCCACTTCACCGACGGAGTCACCTAGTGCAG | 3500 fluorescence intensity (a.u.)
CCCTGGCGGTGGGCGGTGGGCAGCTGAGGTGGAAGCAGAGCGGAGTCACCTAGTGCAG | 5800 fluorescence intensity (a.u.)
CGCGCCAGATCAGATCCACCGCCCTCTCTCTCTCTCTCTCCGGAGTCACCTAGTGCAG | 5670 fluorescence intensity (a.u.)
GCCACTTGCCCAGGTCACGCACACATTATTGAGCGAGCGACGGAGTCACCTAGTGCAG | 4590 fluorescence intensity (a.u.)
TTCTTCGAGGACCACATGCGTGAGTGGATGACGGAGTTCCCGGAGTCACCTAGTGCAG | 3950 fluorescence intensity (a.u.)
GTGCCTGACAATCCTACAGGTGAAATCAACCCCTTTCATCCGGAGTCACCTAGTGCAG | 40800 fluorescence intensity (a.u.)
ATAACACGTAGAAATACAGTTATCATGTCACCAAACATATCGGAGTCACCTAGTGCAG | 4120 fluorescence intensity (a.u.)
GCGCGCGGCGAGTGACGCGGCGCGGCGTGTTCGTGCGTGCCGGAGTCACCTAGTGCAG | 6300 fluorescence intensity (a.u.)
CCTCTCCACCGCGCTTTCCGCCAGCGCGATGACTCTGCGCCGGAGTCACCTAGTGCAG | 5310 fluorescence intensity (a.u.)
GCCGCCCACCCGCGCCGTCCGCTGTCCAGGAAGGAGAGAGCGGAGTCACCTAGTGCAG | 3480 fluorescence intensity (a.u.)
CTAGTCGGTATAGATGTTGATGTCTCCCCGACACACCTCCCGGAGTCACCTAGTGCAG | 20900 fluorescence intensity (a.u.)
GAGCTCCCTGACCGCAGCGGTGATGTGAGCACTGGGCCATCGGAGTCACCTAGTGCAG | 3160 fluorescence intensity (a.u.)
TGATCCTCGCTACGGCCGACTACGACGACGACAGGTTGCGCGGAGTCACCTAGTGCAG | 3760 fluorescence intensity (a.u.)
CTTGGCAAGGAAAGGCGTCAGCTCGATGTCGTACGTCGGCCGGAGTCACCTAGTGCAG | 3940 fluorescence intensity (a.u.)
TCTTGTCGCCATCGCATCGCCATCGCGTCACCATCTCGTCCGGAGTCACCTAGTGCAG | 28400 fluorescence intensity (a.u.)
GCGCCGCCTCCCAATCCGGGAGGATCCCTCCGGACCCGCCCGGAGTCACCTAGTGCAG | 5540 fluorescence intensity (a.u.)
AATTGATACTTGTGAGGATGACATGTAAGACTATCTGAGTCGGAGTCACCTAGTGCAG | 4590 fluorescence intensity (a.u.)
GTCCCACGCTGACTCAGCCGTCACGTAGGATAAAACCGGACGGAGTCACCTAGTGCAG | 14300 fluorescence intensity (a.u.)

Sequence | binding signal
CGGAGGGAGTATAAAAGAACAATACTTCTATAAATTTTGTCGGAGTCACCTAGTGCAG | 40300 fluorescence intensity (a.u.)
CGAAACCACAAACGTGCCCTCCATTTACTAGCTGATTGGGCGGAGTCACCTAGTGCAG | 3660 fluorescence intensity (a.u.)
AATTAAGATGTTGTCACATCAATGTCCTAAGTGACAAATACGGAGTCACCTAGTGCAG | 4560 fluorescence intensity (a.u.)
AAAGGAAAGGCGCGTCACGGCGTCAGACGAGACGACGACGCGGAGTCACCTAGTGCAG | 3340 fluorescence intensity (a.u.)
CCAGCAGCCCCTCTCTCATCCATGGTAGTGCTCTGTCATGCGGAGTCACCTAGTGCAG | 3400 fluorescence intensity (a.u.)
GGATCAAATTGCCACATATGCGCCACGTTAATGCCACATCCGGAGTCACCTAGTGCAG | 8660 fluorescence intensity (a.u.)
GAATGAATTGAAACAGACAATGCACACGCTTAGTCCATGACGGAGTCACCTAGTGCAG | 28800 fluorescence intensity (a.u.)
ACTTGATGTGATATATCCTAGTCCAACGAATCTGGACAGCCGGAGTCACCTAGTGCAG | 3260 fluorescence intensity (a.u.)
ATCCAAATGTTGAAACAGTATGAATTACAGTCATAGTACGCGGAGTCACCTAGTGCAG | 3310 fluorescence intensity (a.u.)
AGAAGCTTTCCGAGGGTGGGCCCGCGTCGTCAGTGTGTGACGGAGTCACCTAGTGCAG | 4060 fluorescence intensity (a.u.)
CCCCTCCTGGGACTACTCGGCCACGACGGCTTCCACCCCGCGGAGTCACCTAGTGCAG | 3370 fluorescence intensity (a.u.)
GTTAGTATACTATTTATGAGTCAGCTCGAGCATGTGTCAACGGAGTCACCTAGTGCAG | 11800 fluorescence intensity (a.u.)
CGTCTGATGATGCAACACCGTCGCCATTGTCGAGATCGGCCGGAGTCACCTAGTGCAG | 5430 fluorescence intensity (a.u.)
TCTTTGGATATAAAGCAACTACAATTTCAAAGGTAACCAACGGAGTCACCTAGTGCAG | 3460 fluorescence intensity (a.u.)
TTGTCCCCGATGACAATCTCCACTCTGACGTTGCTAATGTCGGAGTCACCTAGTGCAG | 30600 fluorescence intensity (a.u.)
TGGGCGGCGGCGCCGGCGAGCCGCCGATGTTCTGGCGTATCGGAGTCACCTAGTGCAG | 9540 fluorescence intensity (a.u.)
ATCCCCGCGAAGCCGCCATGAATGACGCCCACCCTTCCCACGGAGTCACCTAGTGCAG | 4520 fluorescence intensity (a.u.)
CCGCGGATTGCGTGCCAACGTTTGACTGTCCGTCTTATATCGGAGTCACCTAGTGCAG | 5060 fluorescence intensity (a.u.)
AAAGTCATGTCATCACGTATATATCACGTATACATATATACGGAGTCACCTAGTGCAG | 4080 fluorescence intensity (a.u.)
GCGCCATGCATGCATATATGCATGACATGGCATGCCTTCCCGGAGTCACCTAGTGCAG | 9720 fluorescence intensity (a.u.)
CCGTCGTGCTGGGTGTGGCGCCGGAGAAGAAGGCGCAGCACGGAGTCACCTAGTGCAG | 41700 fluorescence intensity (a.u.)

Part of the list above, as a markdown table:

| Sequence | binding signal |
| --- | --- |
| CCGTGCACGCTCCCAGATCATGCCACGTGGGTGGGCCCCACGGAGTCACCTAGTGCAG | 16200 fluorescence intensity (a.u.) |
| CGCGCCAGATCAGATCCACCGCCCTCTCTCTCTCTCTCTCCGGAGTCACCTAGTGCAG | 5670 fluorescence intensity (a.u.) |
| GTGCCTGACAATCCTACAGGTGAAATCAACCCCTTTCATCCGGAGTCACCTAGTGCAG | 40800 fluorescence intensity (a.u.) |
| ATAACACGTAGAAATACAGTTATCATGTCACCAAACATATCGGAGTCACCTAGTGCAG | 4120 fluorescence intensity (a.u.) |
| GCGCCGCCTCCCAATCCGGGAGGATCCCTCCGGACCCGCCCGGAGTCACCTAGTGCAG | 5540 fluorescence intensity (a.u.) |
| AATTGATACTTGTGAGGATGACATGTAAGACTATCTGAGTCGGAGTCACCTAGTGCAG | 4590 fluorescence intensity (a.u.) |
| CGAAACCACAAACGTGCCCTCCATTTACTAGCTGATTGGGCGGAGTCACCTAGTGCAG | 3660 fluorescence intensity (a.u.) |
| GGATCAAATTGCCACATATGCGCCACGTTAATGCCACATCCGGAGTCACCTAGTGCAG | 8660 fluorescence intensity (a.u.) |
| GTTAGTATACTATTTATGAGTCAGCTCGAGCATGTGTCAACGGAGTCACCTAGTGCAG | 11800 fluorescence intensity (a.u.) |
| TCTTTGGATATAAAGCAACTACAATTTCAAAGGTAACCAACGGAGTCACCTAGTGCAG | 3460 fluorescence intensity (a.u.) |
| TTGTCCCCGATGACAATCTCCACTCTGACGTTGCTAATGTCGGAGTCACCTAGTGCAG | 30600 fluorescence intensity (a.u.) |
| TGGGCGGCGGCGCCGGCGAGCCGCCGATGTTCTGGCGTATCGGAGTCACCTAGTGCAG | 9540 fluorescence intensity (a.u.) |
| ATCCCCGCGAAGCCGCCATGAATGACGCCCACCCTTCCCACGGAGTCACCTAGTGCAG | 4520 fluorescence intensity (a.u.) |
